PubChem BioAssay AID1508588, Peter MacCallum Cancer Centre | 2020

- Aim: 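Knock-downs boosting vemurafenib effects on melanoma cell growth or lactate release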 (primary screen)
- Cell system: human WM266.4 melanoma cells (BRAF V600 mutant)
- Reagents: siRNA pool against human genes, 40 nM
- Timing: 96 h from transfection to read-out
- Challenge: vemurafenib 300 nM (about IC25), added 48 h after transfection, for 48 h; comparison arm got DMSO vehicle only
- Measurement: 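Cell gain (DAPI nuclei at end minus before drug, mean of two replicates) and medium lactate by absorbance per cell, both as ratio to non-targeting siRNA, also grouped into fold-change classes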
- Reading the numbers: cell gain with vemurafenib: higher = more cell gain than with non-targeting siRNA; lactate per cell with vemurafenib: higher = more lactate made per cell
- Hit rule: 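Enhancement is called by pairing each knock-down's vehicle-arm and drug-arm fold-change classes for viability or glycolysis; which class combinations qualify is not given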
- Calls: active = enhances vemurafenib effect; inactive = no enhancement seen
Shown is an unselected part of about 18,000 reagents tested. 790 of all reagents (4.4%) were called active. 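Calls rest on a combination of fold-change classes in drug and vehicle arms, not all shown here.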 Entries without a mark were called inactive.

For GKN1 (gastrokine 1) the deposit lists cell gain with vemurafenib 0.46; lactate per cell with vemurafenib 1.09. SLC35F1 gave cell gain with vemurafenib 0.75; lactate per cell with vemurafenib 1.23. For HECA (HECA ribonucleoprotein granule regulator) the deposit lists cell gain with vemurafenib 1.21; lactate per cell with vemurafenib 0.52. ANK3 (ankyrin 3) showed cell gain with vemurafenib 1.03; lactate per cell with vemurafenib 0.76. Silencing of PADI4 (peptidyl arginine deiminase 4) came out at: cell gain with vemurafenib 0.4; lactate per cell with vemurafenib 1.07. Silencing of TTLL8 (tubulin tyrosine ligase like 8) came out at: cell gain with vemurafenib 0.29; lactate per cell with vemurafenib 1.57.

DARS2 (aspartyl-tRNA synthetase 2, mitochondrial) gave cell gain with vemurafenib 0.99; lactate per cell with vemurafenib 0.55. TMEM86A (transmembrane protein 86A) scored cell gain with vemurafenib 0.44; lactate per cell with vemurafenib 1.32. With knock-down of ADAM10 (ADAM metallopeptidase domain 10), the screen gave cell gain with vemurafenib 0.23; lactate per cell with vemurafenib 1.5. Against MAPK8IP2 (mitogen-activated protein kinase 8 interacting protein 2), the values are cell gain with vemurafenib 0.56; lactate per cell with vemurafenib 1.33. After knock-down of YIF1B the results were cell gain with vemurafenib 0.12; lactate per cell with vemurafenib 1.69. With knock-down of CT45A6 (cancer/testis antigen family 45 member A6), the screen gave cell gain with vemurafenib 0.65; lactate per cell with vemurafenib 0.56.

With knock-down of DSCAML1 (DS cell adhesion molecule like 1), the record shows cell gain with vemurafenib 0.22; lactate per cell with vemurafenib 1.06. SOX11 (SRY-box transcription factor 11) scored cell gain with vemurafenib 0.38; lactate per cell with vemurafenib 1.15. For ZNG1F (Zn regulated GTPase metalloprotein activator 1F) the deposit lists cell gain with vemurafenib 0.93; lactate per cell with vemurafenib 0.4. Knock-down of EAPP (E2F associated phosphoprotein) gave: cell gain with vemurafenib 1.15; lactate per cell with vemurafenib 0.68. After knock-down of SMC6 (structural maintenance of chromosomes 6) the results were cell gain with vemurafenib 1.14; lactate per cell with vemurafenib 0.92. SLC25A41 showed cell gain with vemurafenib -0.19; lactate per cell with vemurafenib 1.57.

STAT5B (signal transducer and activator of transcription 5B) showed cell gain with vemurafenib 0.39 (active); lactate per cell with vemurafenib 0.14. For PMVK (phosphomevalonate kinase), the values are cell gain with vemurafenib 0.49 (active); lactate per cell with vemurafenib 0.42. Against BEND2 (BEN domain containing 2), the values are cell gain with vemurafenib 0.86; lactate per cell with vemurafenib 0.59. MACF1 (microtubule actin crosslinking factor 1) showed cell gain with vemurafenib 0.54; lactate per cell with vemurafenib 1.73.

Looked up above.
For “lactate per cell with vemurafenib”, HECA (HECA ribonucleoprotein granule regulator) is entered as 0.52
Entry of PADI4 (peptidyl arginine deiminase 4) under “lactate per cell with vemurafenib”: 1.07
ANK3 (ankyrin 3), lactate per cell with vemurafenib → 0.76

The list goes on:
Against ABRAXAS2 (abraxas 2, BRISC complex subunit) the deposit lists cell gain with vemurafenib 0.58; lactate per cell with vemurafenib 0.86. For DEFB104B (defensin beta 104B), the entry reads cell gain with vemurafenib 0.44; lactate per cell with vemurafenib 1.1. With knock-down of DHRS4 (dehydrogenase/reductase 4) the results were cell gain with vemurafenib 0.33; lactate per cell with vemurafenib 1.87. After knock-down of OR51S1 (olfactory receptor family 51 subfamily S member 1), the screen gave cell gain with vemurafenib 0.82; lactate per cell with vemurafenib 1. ZNF696 (zinc finger protein 696) scored cell gain with vemurafenib 0.6; lactate per cell with vemurafenib 0.7. For KRTAP13-2 (keratin associated protein 13-2), the values are cell gain with vemurafenib 0.62; lactate per cell with vemurafenib 1.57.

With knock-down of HLA-DRB4 (major histocompatibility complex, class II, DR beta 4) the results were cell gain with vemurafenib 0.9; lactate per cell with vemurafenib 1.12. BRPF1 (bromodomain and PHD finger containing 1) scored cell gain with vemurafenib 0.15; lactate per cell with vemurafenib 1.34. Knock-down of CCSER2 (coiled-coil serine rich protein 2) came out at: cell gain with vemurafenib 0.65; lactate per cell with vemurafenib 0.91. With knock-down of ZNF584 (zinc finger protein 584), the record shows cell gain with vemurafenib 0.53; lactate per cell with vemurafenib 0.53. Knock-down of MEIS3 (Meis homeobox 3) gave: cell gain with vemurafenib 1.52; lactate per cell with vemurafenib 0.36. DEFB1 (defensin beta 1) gave cell gain with vemurafenib 0.32; lactate per cell with vemurafenib 1.07.

With knock-down of BMP1 (bone morphogenetic protein 1) the results were cell gain with vemurafenib 0.52; lactate per cell with vemurafenib 0.86. DAZ2 (deleted in azoospermia 2) gave cell gain with vemurafenib 0.35; lactate per cell with vemurafenib 1.36. ADRA1B (adrenoceptor alpha 1B) gave cell gain with vemurafenib 0.93; lactate per cell with vemurafenib 0.66. PLEK (pleckstrin) gave cell gain with vemurafenib 0.43; lactate per cell with vemurafenib 0.73. VIP (vasoactive intestinal peptide) showed cell gain with vemurafenib 0.89 (active); lactate per cell with vemurafenib 0.43. Knock-down of EMP2 (epithelial membrane protein 2) gave: cell gain with vemurafenib 0.82; lactate per cell with vemurafenib 1.34.
